Data source: PubChem BioAssay AID1259308 (NCATS, 2017)

Screen: 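Candidate targets for better recombinant protein yield in mammalian cells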 (primary screen)
Cells: human HEK293 embryonic kidney cells stably expressing firefly luciferase (HEK-CMV-Luc2-Hygro)
Knock-down reagent: single siRNA against human genes, 0.8 pmol siRNA per well
Duration: 72 h
Detection: 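Luciferase light (ONE-Glo) measured on one replicate plate set and viability (CellTiter-Glo) on the other, scaled to a negative control siRNA, with robust z-scores and luciferase per cell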
Reading the numbers: total luciferase, z-score and total luciferase, % of control: higher = more reporter protein produced
Call rule: 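Active when the median/MAD z-score for overall luciferase is greater than 3; a gene was taken forward for validation with new siRNAs if at least two of its three siRNAs passed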
Meaning of the calls: active = raised luciferase; inactive = no rise
The deposit covers about 59,000 reagents; this is a random part of them. About 1,510 of them (2.6%) count as active. 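Calls use total luciferase alone and ignore viability, so some active siRNAs may act by altering cell number.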 A number with no mark means an inactive call. Further read-outs or replicates are left out here. Reagent sequences are not shown.

With RPS28P7 (ribosomal protein S28 pseudogene 7) [SID160725916], how do the results read?
total luciferase, z-score: -2.5; total luciferase, % of control: 32.2

How did the screen score RPS28P7 (ribosomal protein S28 pseudogene 7) [SID160769810]?
total luciferase, z-score: -2.75; total luciferase, % of control: 27.2

For RPS28P7 (ribosomal protein S28 pseudogene 7) [SID160769811], how do the results read?
total luciferase, z-score: -2.81; total luciferase, % of control: 25.9

Which result is listed for FAM217B (family with sequence similarity 217 member B) [SID160733739]?
total luciferase, z-score: -0.189; total luciferase, % of control: 78.1

What did the screen give for FAM217B (family with sequence similarity 217 member B) [SID160747316]?
total luciferase, z-score: 1.1; total luciferase, % of control: 104

What did the screen give for FAM217B (family with sequence similarity 217 member B) [SID160747317]?
total luciferase, z-score: 1.63; total luciferase, % of control: 114

Part of the list above in another layout.
RPS28P7 (ribosomal protein S28 pseudogene 7) [SID160769811]
- total luciferase, z-score: -2.81
- total luciferase, % of control: 25.9

FAM217B (family with sequence similarity 217 member B) [SID160733739]
- total luciferase, z-score: -0.189
- total luciferase, % of control: 78.1

The results go on.
What did the screen give for CR2 (complement C3d receptor 2) [SID160747806]?
total luciferase, z-score: 1.32; total luciferase, % of control: 108

With CR2 (complement C3d receptor 2) [SID160747816], what does the deposit list?
total luciferase, z-score: -0.635; total luciferase, % of control: 69.2

For CR2 (complement C3d receptor 2) [SID160747825], what was measured?
total luciferase, z-score: 0.278; total luciferase, % of control: 87.4

For TCP1 (t-complex 1) [SID160717848], what was measured?
total luciferase, z-score: 2.34; total luciferase, % of control: 129

With TCP1 (t-complex 1) [SID160717849], what was measured?
total luciferase, z-score: 2.97; total luciferase, % of control: 141

How did the screen score TCP1 (t-complex 1) [SID160731821]?
total luciferase, z-score: 0.193; total luciferase, % of control: 85.7
